# Source: PubChem BioAssay AID602346 (Broad Institute, 2012)
# Values joined by “and” are separate entries in the source; they are usually repeats but may differ in a detail not shown here. Identical values can stand only once. In all, about 340,000 compounds went through this assay and about 1,200 (0.35%) were called active. Inconclusive means that the source gave no clear call. Such entries were picked first, then a sample of the others. Cut-off read from the data, not from the text of the source: active = inhibition above about 50% (passing the limit was not always enough); inconclusive = no clear call, values can overlap the other calls; inactive = below about 31%.
# Assay: blockers of Vif multimerization in cells – imaging, HEK293T, single point, primary screen (AID 602346)
# Conditions: Vif self-association by quenched fluorescence, 24 h, at 7.49 µM, hits give high values
row,Compound,inhibition
1,O=C(Nc1ccc2nsnc2c1)NC1CCCCC1,inactive: 1.63%
2,CCn1nc(C)c(Br)c1-c1nc(CS(=O)(=O)c2ccsc2)no1,active: 56%
3,CC1=C(C(=O)Nc2cccc(C(=O)NCc3ccc(F)cc3)c2)SCCO1,inconclusive: 18.9%
4,O=C(Nc1ccc(Cl)cc1C(=O)c1ccccn1)c1ccccc1,inconclusive: 42.4%
5,O=C(Nc1cccc(C(=O)N2CCCCCC2)c1)c1ccco1,inconclusive: 17.6%
6,COc1ccc(S(=O)(=O)N2CCOCC2)cc1N=Nc1sc(N)nc1-c1ccccc1,inactive: -4.19%
7,CCCCN1C=C(C(=O)OC)C(c2ccccc2C(F)(F)F)C(C(=O)OC)=C1,inactive: -4.22%
8,C=CCN=c1scc(-c2ccccc2)n1/N=C/c1ccccn1,inactive: -7.98% and inactive: -4.74%
9,CCCN1C(=O)/C(=C/c2ccc(C)o2)SC1=Nc1ccc(OCC)cc1,inconclusive: 27.9%
10,Oc1c(Br)cc(C2N=C(c3ccccc3Cl)NO2)cc1Br (stereo not drawn),inconclusive: 31.7%
11,CCOC(=O)C1CCN(C(=O)CS(=O)(=O)Cc2nc(-c3ccccc3Cl)oc2C)CC1,inconclusive: 25.3%
12,CCCCC1(CC)SCC(=O)NC1=O (stereo not drawn),inconclusive: 45.7%
13,COc1ccc(-c2coc3cc(O)ccc3c2=O)cc1,active: 56.8%
14,CC(=O)Cc1cc(O)c2ccccc2c1OC(=O)c1ccc(Br)cc1,inconclusive: 44.2%
15,COc1cc(OC)cc(C(=O)NCC(=O)OCc2cc(=O)oc3cc(OC)ccc23)c1,inconclusive: 45.4%
16,COc1ccc(CC(C)NCC(O)c2ccc(O)c(NC=O)c2)cc1 (stereo not drawn),inconclusive: 48.2%
17,COC(=O)c1ccc(N2CCOCC2)c(NC(=O)c2cc3ccccc3o2)c1,inconclusive: 28.1%
18,CCOC(=O)C(=O)N1CCN(c2ccccc2OC)CC1,inconclusive: 35.4%
19,Brc1ccc(C2=NC(Cc3ccccc3)CO2)cc1 (stereo not drawn),inactive: -6.72%
20,c1ccc(CC2=NCCN2)cc1,inconclusive: 26.4%
21,CCCc1cc(C(=O)Nc2cccc(C(C)=O)c2)no1,inactive: -2.3%
22,CCc1cc(Br)ccc1NC(=S)NCCc1ccccc1,inactive: 1.68%
23,COc1ccc(OC)c2sc(NC(=O)C3=COCCO3)nc12,inactive: -5.9%
24,COc1ccc(NS(=O)(=O)c2cccc(C(=O)NNC(=O)c3ccccc3OC)c2)cc1,inconclusive: 19.7%

row,Compound,inhibition
1,COc1cc(NC(=O)c2cccs2)c(OC)cc1NC(=O)c1cccs1,inconclusive: 30%
2,Cc1ccc(N2CC(C(=O)NC3=NCCS3)CC2=O)cc1 (stereo not drawn),inconclusive: 33.3%
3,COc1cc2c(cc1OC)[C@H](Cc1ccc(O)cc1)NCC2,inconclusive: 31.8%
4,COc1cccc(Nc2nc(NCCO)nc(N3CCCC3)n2)c1,inconclusive: 44.1%
5,CCCCCn1c(SCC#N)nc2cc(C(=O)NCC3CCCO3)ccc2c1=O (stereo not drawn),inconclusive: 6.78%
6,COC(=O)COc1ccc2c(c1)O/C(=C\c1cccc([N+](=O)[O-])c1)C2=O,inactive: 1.86%
7,Cc1cc(COc2ccccc2)oc1C(=O)O,inconclusive: 45.3%
8,CC/C(=N/NC(=O)c1ccc2c(c1)OCO2)c1ccccc1O,inconclusive: 27%
9,COC(=O)c1[nH]c2c(c1C)C(=O)CC(c1cccc(OC)c1)C2 (stereo not drawn),inconclusive: 34.8%
10,Oc1ccc(N2CCN(Cc3cc4c(cc3Br)OCCO4)CC2)cc1,inconclusive: 40.1%
11,COc1ccc(C=NCC2COc3ccccc3O2)cc1OC (stereo not drawn),inconclusive: 30.2%
12,COC(C)(C)c1cc(C(C)(C)C)nc(N)n1,inactive: -2.93%
13,CC(=O)c1ccc2cccc3c2c1N=CN3C,active: 67.2%
14,CCN1CCN(C(=O)C2CCN(C(=O)c3cc4sccc4n3CC)CC2)CC1,inactive: 13%
15,Cc1ccc(C(C)C)c(OCCCN2CC(C)OC(C)C2)c1 (stereo not drawn),inconclusive: 29.9%
16,Cc1nc(N2CCOCC2)c2cc(-c3ccccc3)sc2n1,inconclusive: 48.2%
17,CCOc1cc(C#N)c(NC(=O)c2ccco2)cc1OCC,inconclusive: 40.1%
18,COc1cc(-c2cc(=O)c3c(O)cc(O)cc3o2)cc(OC)c1OC,inconclusive: 20.5%
19,COc1ccc(C(=O)Nc2cc(OC)c(NC(=O)Nc3ccccc3)cc2OC)cc1,active: 73.4%
20,CCCOc1c(Cl)cc(C(=O)Nc2ccc3c(c2)OCO3)cc1OCC,inactive: 3.25%
21,Cc1ccc(C)c(OCCC(=O)Nc2ccc(S(=O)(=O)N3CCCC3)cc2)c1,inconclusive: 24.9%
22,CCOc1ccc(OCc2ccc(C(=O)N3CCCCC3)o2)cc1,inactive: -24.9%
23,CC(C)[C@H](NC(=O)c1ccccc1)C(=O)OCC(=O)Nc1ccc(S(=O)(=O)N2CCOCC2)cc1,inactive: 4.8%
24,COc1ccc(/C=C/CN2CCC(n3nccc3NC(=O)C3CC3)CC2)cc1,inconclusive: 38%

row,Compound,inhibition
1,CN(CCC#N)C(=O)c1cc2c(s1)-c1ccccc1SC2,inactive: -7.96%
2,O=C(COC(=O)CC1CC2CCC1C2)NCc1ccc(F)cc1 (stereo not drawn),inconclusive: 34.4%
3,O=C(COC(=O)c1c(F)cccc1F)Nc1ccccc1OC(F)F,active: 50.6%
4,COCCN(C(=O)CNC(=O)c1ccco1)C(C(=O)NC1CCCC1)c1cccc(OC)c1 (stereo not drawn),active: 51.9%
5,Oc1sc(C=Nc2ccccc2)c2ccccc12,inactive: 9.14%
6,O=c1[nH]c2ccc(Br)cc2o1,inconclusive: 42.4%
7,CCCCN1C(=O)/C(=C/C=C2\Oc3ccccc3N2CC)SC1=S,active: 69.3%
8,O=C(Nc1ccccc1)c1ccc(NCc2ccco2)c(S(=O)(=O)N2CCOCC2)c1,inconclusive: 25.3%
9,O=C(Nc1ccc2c(c1)nc1n2CCOC1)c1ccccc1,active: 58.3%
10,CCCC1(C2CCCC2)NC(=O)NC1=O (stereo not drawn),active: 96.8%
11,CC(C)CC(=NNC(=O)c1ccncc1)c1cc(Cl)ccc1O,active: 55.1%
12,Cc1ccc(S(=O)(=O)/C(C#N)=C/c2c(N3CC(C)OC(C)C3)nc3ccccn3c2=O)cc1 (stereo not drawn),active: 67.3%
13,CC(C)(C)OC(=O)C[C@H]1C/C=C\C[C@H](CC(=O)N[C@H](CO)Cc2ccccc2)C(=O)N[C@H](Cc2ccccc2)COC1=O,inactive: -2.78%
14,N#C/C(=C\c1ccc(O)c(O)c1)C(=O)Nc1ccccc1,inconclusive: 34.3%
15,COc1ccc(CCNc2nnc(Sc3nnnn3-c3ccccc3)s2)cc1OC,active: 139%
16,O=C(NCCOc1ccccc1)N1[C@H]2CC[C@@H]1C=C(c1ccc(F)cc1OCc1ccccc1)C2,inactive: -2.23%
17,CC1CN(S(=O)(=O)c2cccc(C(=O)N3CCC(C(N)=O)CC3)c2)CC(C)O1 (stereo not drawn),active: 53.2%
18,CC(=O)N1CCN(C(=O)CCc2nnc(CCCCc3ccccc3)o2)CC1,inconclusive: 44.6%
19,O=C1c2cccc3c(N4CCCCC4)ccc(c23)C(=O)N1c1ccc(O)cc1,active: 112%
20,CC(C)CC(=O)Nc1cc2c3c(c1)CCN3C(=O)CC2,inactive: -9.14%
21,CCO/C=N/c1c(C#N)c(CC#N)nn1-c1ccccc1,inconclusive: 42.8%
22,CCN(C(=O)CSc1nncs1)c1c(N)n(Cc2ccccc2)c(=O)[nH]c1=O,inconclusive: 23.4%
23,Fc1ccc(NC(=S)N/N=C/c2ccc(F)c(F)c2)c(F)c1,active: 110%
24,COC(=O)CCC(=O)NNC(=O)c1cccc(Cl)c1,inconclusive: 34.9%

row,Compound,inhibition
1,Cc1ncc(N=Nc2ccc(F)cc2)c(-c2ccc(Cl)cc2)n1,inconclusive: 41.3%
2,Cc1ccc(/C=C(\C#N)C(=O)Nc2ccccn2)o1,inactive: 5.66%
3,CNC(=O)COc1ncnc2scc(-c3ccc(F)cc3)c12,inactive: 6.57%
4,Cc1ccc(NC(=O)C2CCCN(S(=O)(=O)c3ccc(-n4cnnn4)cc3)C2)cc1 (stereo not drawn),inconclusive: 49.5%
5,CCCNC(=O)CCn1nc(-c2ccc(Cl)cc2)c2ccccc2c1=O,inconclusive: 30.6%
6,COC(=O)c1nn(-c2ccccc2)c(-c2ccccc2)c1C(=O)c1ccccc1,active: 50.2%
7,Cc1nnsc1-c1onc(C)c1C(=O)O/N=C/c1ccc(Cl)cc1,inactive: -5.72%
8,CC(C)n1nc(C(=O)Nc2ccc(-n3cnnn3)cc2)c2ccccc2c1=O,inconclusive: 39.8%
9,Oc1ccc(NCc2ccc(OCc3ccccc3)cc2)cc1,inactive: 21.6%
10,CCOC(=O)c1ccccc1NC(=O)CN(c1ccccc1OC)S(C)(=O)=O,inconclusive: 37.5%
11,CNc1ccc(Br)cc(C(=O)/C=C/c2cccc(OC)c2OC)c1=O,active: 74.6%
12,COc1ccc(NC(=O)Cn2nnc(-c3ccccc3N)n2)cc1OC,inconclusive: 39.9%
13,Cc1ccc(C)c(OCc2nc3ccccc3[nH]2)c1,inactive: -3.11%
14,CC(=O)NNC(=O)C(O)(c1ccccc1)c1ccccc1,inconclusive: 28.7%
15,CN(C)CCN(Cc1ccccc1)C(=O)[C@H](Cc1ccccc1)N1C(=O)c2ccccc2C1=O,inconclusive: 45.5%
16,CCOc1cc2[nH]c(=S)n(Cc3ccc(C(=O)NCC(OC)OC)cc3)c(=O)c2cc1OCC,inconclusive: 38.1%
17,COc1ccccc1OCC(=O)Nc1ccc(S(=O)(=O)N2CCCC2)cc1,active: 76%
18,C[C@H](CO)N1C[C@H](C)[C@@H](CN(C)C(=O)Nc2ccc3c(c2)OCO3)Oc2c(cccc2N(C)C)C1=O,inconclusive: 41.9%
19,COCn1c(-c2cccc(Br)c2)nc2ccccc21,inconclusive: 48.8%
20,Cc1nc2ccccn2c1CN(C)C(=O)C1CCC(=O)N(CCc2cccc(F)c2)C1 (stereo not drawn),inactive: 7.51%
21,O=C(COC(=O)c1cc(S(=O)(=O)N2CCOCC2)ccc1F)c1ccc[nH]1,active: 53.3%
